Among all 340,000 compounds or so, about 170 (0.05%) were called active. The inconclusive results got no clear call from the source; some entries with a clear call stand among them for comparison. Calls follow the shape of the dose curve; as a rule, active = well fitted inhibition curve with a large enough effect in the signal ratio, with a control signal flat (not every such curve was filed as active); inconclusive = small, poorly fitted or top-dose-only effect, or effect the other way, or a change in a side signal; inactive = flat fitted curve, though single readings scatter; the % refers to the signal ratio. A potency beside an inconclusive call is a rough fit, not a confirmed value.
assay: qHTS Assay to Find Inhibitors of Chronic Active B-Cell Receptor Signaling; conditions: ABC-DLBCL IkBa-CBG/CBR reporter, luminescence ratio (green luciferase fused to IkBa over red control in TMD8 lymphoma cells), 4 h; activity change, negative = inhibition: at 46.1 µM (top of the series) unless noted;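 as to activity change, negative = inhibition: plate controls were basal doxycycline-induced cells for no effect and cells given 10 µM MG132 for full effect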
Outline: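 Doxycycline induced both beetle luciferases in TMD8 lymphoma cells; IKK-driven degradation limits the IkappaBalpha-fused green signal, while red luminescence normalises for cell number and nonspecific effects. Compounds tested up to 46 uM, 4 hrs.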
Potency is read from the fitted curve at half-maximal effect.

For `O=C1c2ccccc2C(=O)N1CCCCCc1nc(-c2ccccc2)no1`, which activity change, negative = inhibition is on record?
The activity change, negative = inhibition was inconclusive: 18.4%.

With `COc1ccc(C/C(C)=N/NC(=O)c2ccc(Cl)cc2)cc1` as the compound, how does the Potency read?
Its Potency is inconclusive: 12.6 µM [falling, partial curve].

For `Fc1ccccc1SCc1nnc(-c2ccccc2Br)o1`, which activity change, negative = inhibition is on record?
Its activity change, negative = inhibition is inconclusive: -0.0473%.

Which activity change, negative = inhibition does the source give for `CCCc1ccc2oc(C(=O)NCc3nnc(C)o3)c(C)c2c1` here?
The activity change, negative = inhibition was inconclusive: 10%.

For `C[C@@]12CCC3[C@@](CCC4[C@@]3(C)CCC[C@@]4(C)C(=O)NCc3ccccc3)(CC1=O)C2` (stereo partly specified), which activity change, negative = inhibition is on record?
Its activity change, negative = inhibition is inconclusive: 4.32%.

For `O=C(CSc1n[nH]c(-c2ccc(S(=O)(=O)N3CCCCC3)cc2)n1)Nc1nccs1`, which Potency is on record?
The Potency was inconclusive: 18.4 µM [rising, partial curve, poor fit].

With `COc1ccc(-c2nc(N)ncc2-c2ccc(Cl)cc2)c(O)c1` as the compound, how does the activity change, negative = inhibition read?
The activity change, negative = inhibition was inconclusive: 0.111%.

With `COC(=O)c1ccc(NC(=O)c2ccco2)cc1` as the compound, how does the activity change, negative = inhibition read?
The activity change, negative = inhibition was inconclusive: -15.9%.

With `Cc1ccsc1-c1cc(C(=O)O)c2c(ccc3ccccc32)n1` as the compound, how does the Potency read?
Its Potency is inconclusive: 22.4 µM [falling, single point].

For `COc1ccc2c(c1)-c1nc(NC(=O)c3cccs3)sc1CC2`, which “activity change, negative = inhibition” value is on record?
The value was inactive: 3.43%.

Which Potency does the source give for `c1ccc(-c2nc(Sc3ncnc4c3cnn4-c3ccccc3)n[nH]2)cc1` here?
Its Potency is inconclusive: 17.8 µM [falling, partial curve, poor fit].

For `O=C(COc1ncnc2c1cnn2-c1ccccc1)Nc1ccc(S(=O)(=O)N2CCCCC2)cc1`, which activity change, negative = inhibition is on record?
Its activity change, negative = inhibition is inconclusive: -2.22%.

Which activity change, negative = inhibition does the source give for `C=CC[C@H]1CC(C)=C[C@H](CC=C)N1` here?
Its activity change, negative = inhibition is inconclusive: 6.49%.

For `O=C1c2cccnc2C(=O)N1Cc1ccc(S(=O)(=O)N2CCOc3ccc(Cl)cc32)cc1`, which Potency is on record?
Its Potency is inconclusive: 11.2 µM [falling, partial curve].

For `CCOc1ccc(C2=Nn3c(nnc3-c3cccnc3)SC2)cc1`, which activity change, negative = inhibition is on record?
The activity change, negative = inhibition was inconclusive: -4.22%.

With `CCOc1cccc2cc(-c3nc(-c4ccc(Cl)cc4)c(C)s3)c(=O)oc12` as the compound, how does the “activity change, negative = inhibition” value read?
Its value is inactive: -8.36%.

With `CCOc1ccc(-c2noc(COC)n2)cc1OC` as the compound, how does the activity change, negative = inhibition read?
The activity change, negative = inhibition was inconclusive: 12.8%.

With `COc1ccc(CCC(C)N(C)Cc2ccccc2)cc1` (stereo unspecified) as the compound, how does the activity change, negative = inhibition read?
The activity change, negative = inhibition was inconclusive: 3.59%.

Which activity change, negative = inhibition does the source give for `Cc1onc(-c2ccccc2)c1NC(=O)Nc1ccc(OC(F)F)cc1` here?
Its activity change, negative = inhibition is inconclusive: 11.4%.

With `O=C(NCCN1CCOCC1)c1cc2cc(Br)ccc2oc1=O` as the compound, how does the Potency read?
Its Potency is inconclusive: 1.84 µM [rising, full curve].

Which Potency does the source give for `CN(C)c1ccc(NC(=O)/C=C/c2ccccc2Cl)cc1` here?
Its Potency is inconclusive: 20.6 µM [falling, partial curve].

Which activity change, negative = inhibition does the source give for `CC(=O)c1sc(N/N=C/c2cccc(O)c2)nc1C` here?
Its activity change, negative = inhibition is inconclusive: -27.6%.

Which activity change, negative = inhibition does the source give for `COC(=O)COc1cccc(NC(=O)c2cccc(C)c2)c1` here?
Its activity change, negative = inhibition is inconclusive: -19%.

Which Potency does the source give for `O=C(c1ccccc1)c1n[nH]c(-c2ccccc2)cc1=O` here?
Its Potency is inconclusive: 11.2 µM [falling, partial curve].

With `COc1ccc(F)c(CN2CCC(N3CCC(C(=O)N4CCOCC4)CC3)CC2)c1` as the compound, how does the “activity change, negative = inhibition” value read?
Its value is inactive: -1.24%.

For `Fc1ccc(C2NCCn3cccc32)cc1` (stereo unspecified), which activity change, negative = inhibition is on record?
Its activity change, negative = inhibition is inconclusive: -7.13%.

Which “activity change, negative = inhibition” value does the source give for `Cc1ccc(C(O)c2ccncc2)cc1` (stereo unspecified) here?
The value was inactive: 1.95%.

Which activity change, negative = inhibition does the source give for `CC(OC(=O)c1cccc(S(=O)(=O)N2CCN(C)CC2)c1)C(=O)Nc1ccc(C(N)=O)cc1` (stereo unspecified) here?
Its activity change, negative = inhibition is inconclusive: 0.773%.

Which activity change, negative = inhibition does the source give for `COc1ccc(Cn2c(C)c(C)c(C#N)c2NC(=O)Nc2ccc(Cl)cc2)cc1` here?
Its activity change, negative = inhibition is inconclusive: 0.601%.

For `COc1cccc(Cn2cc(-c3cccc(C(F)(F)F)c3)nn2)c1`, which activity change, negative = inhibition is on record?
Its activity change, negative = inhibition is inconclusive: 35.7%.

Which Potency does the source give for `CCOC(=O)c1cnc(SCC(=O)OCC(=O)NC2CCS(=O)(=O)C2)nc1N` (stereo unspecified) here?
Its Potency is inconclusive: 25.9 µM [rising, partial curve, poor fit].

With `COc1ccc(CN2CCC(C(=O)N(C)CCc3ccc(OC)c(OC)c3)CC2)c(OC)c1` as the compound, how does the activity change, negative = inhibition read?
Its activity change, negative = inhibition is inconclusive: -2.03%.

Which “activity change, negative = inhibition” value does the source give for `O=C(c1cc(S(=O)(=O)N2CCN(c3ccccc3)CC2)ccc1Cl)N1CCCCCCC1` here?
Its value is inactive: 5.53%.

For `O=C(NN=C1CCCCCC1)c1c[nH]c2ccccc12`, which activity change, negative = inhibition is on record?
Its activity change, negative = inhibition is inconclusive: -24.2%.

Which “activity change, negative = inhibition” value does the source give for `CSCc1cc(N(C)C)nc(SCc2ccc(Cl)c(Cl)c2)n1` here?
Its value is inactive: 15.4%.

For `COc1cnc(SCc2ccc(Cl)cc2)nc1Cl`, which activity change, negative = inhibition is on record?
The activity change, negative = inhibition was inconclusive: 12.5%.

Which activity change, negative = inhibition does the source give for `O=C(Nc1ccccc1-c1ccccc1)c1cccc([N+](=O)[O-])c1` here?
The activity change, negative = inhibition was inconclusive: -0.115%.

Which “activity change, negative = inhibition” value does the source give for `c1cnc2ncc3sccc3c2c1` here?
The value was inactive: -0.0947%.

For `O=C(N/N=C/c1cccc(Oc2ccccc2)c1)c1ccccc1Br`, which Potency is on record?
Its Potency is inconclusive: 20 µM [falling, partial curve].

For `O=C(c1ccccc1NS(=O)(=O)c1ccccc1[N+](=O)[O-])N1CCOCC1`, which activity change, negative = inhibition is on record?
The activity change, negative = inhibition was inconclusive: -3.94%.

With `O=C(NCC(O)c1ccccc1)c1ccc(Cl)c(S(=O)(=O)N2CCCC2)c1` (stereo unspecified) as the compound, how does the Potency read?
Its Potency is inconclusive: 23.1 µM [falling, partial curve].

From PubChem BioAssay AID493014 (National Center for Advancing Translational Sciences (NCATS), 2011)
